Test results from patent US20120141373A1 (University of California, published 2012).
Results are given in words; binding and its absence hold for the method and conditions named. Some results given as binding are weak or reduced against the parent protein; the word gives no strength.

Protein sequences, listed by entry. Tags and fused reporters are not part of them.
UniProt Q9Y5Y6: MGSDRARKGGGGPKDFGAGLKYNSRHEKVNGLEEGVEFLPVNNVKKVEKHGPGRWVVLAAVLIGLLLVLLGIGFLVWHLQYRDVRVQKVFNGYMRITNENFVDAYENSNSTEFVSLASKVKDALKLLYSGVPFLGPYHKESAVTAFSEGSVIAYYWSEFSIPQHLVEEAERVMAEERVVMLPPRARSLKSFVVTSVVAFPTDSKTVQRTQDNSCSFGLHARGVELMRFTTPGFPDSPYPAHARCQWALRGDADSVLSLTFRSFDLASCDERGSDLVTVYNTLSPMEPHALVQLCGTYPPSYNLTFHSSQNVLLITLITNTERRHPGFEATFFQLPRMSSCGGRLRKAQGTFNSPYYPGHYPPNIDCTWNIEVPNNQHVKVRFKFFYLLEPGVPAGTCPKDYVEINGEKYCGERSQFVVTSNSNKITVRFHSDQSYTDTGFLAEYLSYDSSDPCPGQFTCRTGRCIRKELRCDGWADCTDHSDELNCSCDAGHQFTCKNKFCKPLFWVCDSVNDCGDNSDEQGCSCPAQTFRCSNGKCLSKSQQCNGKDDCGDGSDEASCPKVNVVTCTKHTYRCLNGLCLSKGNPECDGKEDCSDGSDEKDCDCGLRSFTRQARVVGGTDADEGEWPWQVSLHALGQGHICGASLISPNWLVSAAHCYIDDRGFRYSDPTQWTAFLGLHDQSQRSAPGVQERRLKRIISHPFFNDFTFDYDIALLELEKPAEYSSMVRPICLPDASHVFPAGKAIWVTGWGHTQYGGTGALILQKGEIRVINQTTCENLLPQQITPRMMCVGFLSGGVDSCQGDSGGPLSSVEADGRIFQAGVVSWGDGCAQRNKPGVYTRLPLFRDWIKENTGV

Biological target: full-length MT-SP1 on human cancer cells (human) (UniProt Q9Y5Y6)
Assay: fluorescence microscopy of HT29 cells pre-incubated with recombinant HAI-1

B1: recombinant human HAI-1 (protein, UniProt O43278-2 36-449, looked up)
chain: GPPPAPPGLPAGADCLNSFTAGVPGFVLDTNASVSNGATFLESPTVRRGWDCVRACCTTQNCNLALVELQPDRGEDAIAACFLINCLYEQNFVCKFAPREGFINYLTREVYRSYRQLRTQGFGGSGIPKAWAGIDLKVQPQEPLVLKDVENTDWRLLRGDTDVRVERKDPNQVELWGLKEGTYLFQLTVTSSDHPEDTANVTVTVLSTKQTEDYCLASNKVGRCRGSFPRWYYDPTEQICKSFVYGGCLGNKNNYLREEECILACRGVQGPSMERRHPVCSGTCQPTQFRCSNGCCIDSFLECDDTPNCPDASDEAACEKYTSGFDELQRIHFPSDKGHCVDLPDTGLCKESIPRWYYNPFSEHCARFTYGGCYGNKNNFEEEQQCLESCRGISKKDVFGLRREIPIPSTGSVE
For B1, which binding is on record?
Its binding is “binds”.
